These are yes or no findings as the source states them, for the method shown. Binding seen in cells or lysates may run through a third protein. A yes stands for co-enrichment or nearness to the bait. Other partners may have been found.
B1: ORC3 (protein, UniProt Q9UBD5 1-711)
chain: MATSSMSKGCFVFKPNSKKRKISLPIEDYFNKGKNEPEDSKLRFETYQLIWQQMKSENERLQEELNKNLFDNLIEFLQKSHSGFQKNSRDLGGQIKLREIPTAALVLGVNVTDHDLTFGSLTEALQNNVTPYVVSLQAKDCPDMKHFLQKLISQLMDCCVDIKSKEEESVHVTQRKTHYSMDSLSSWYMTVTQKTDPKMLSKKRTTSSQWQSPPVVVILKDMESFATKVLQDFIIISSQHLHEFPLILIFGIATSPIIIHRLLPHAVSSLLCIELFQSLSCKEHLTTVLDKLLLTTQFPFKINEKVLQVLTNIFLYHDFSVQNFIKGLQLSLLEHFYSQPLSVLCCNLPEAKRRINFLSNNQCENIRRLPSFRRYVEKQASEKQVALLTNERYLKEETQLLLENLHVYHMNYFLVLRCLHKFTSSLPKYPLGRQIRELYCTCLEKNIWDSEEYASVLQLLRMLAKDELMTILEKCFKVFKSYCENHLGSTAKRIEEFLAQFQSLDETKEEEDASGSQPKGLQKTDLYHLQKSLLEMKELRRSKKQTKFEVLRENVVNFIDCLVREYLLPPETQPLHEVVYFSAAHALREHLNAAPRIALHTALNNPYYYLKNEALKSEEGCIPNIAPDICIAYKLHLECSRLINLVDWSEAFATVVTAAEKMDANSATSEEMNEIIHARFIRAVSELELLGFIKPTKQKTDHVARLTWGGC
B2: MCM3 (protein, UniProt P25205 1-808)
chain: MAGTVVLDDVELREAQRDYLDFLDDEEDQGIYQSKVRELISDNQYRLIVNVNDLRRKNEKRANRLLNNAFEELVAFQRALKDFVASIDATYAKQYEEFYVGLEGSFGSKHVSPRTLTSCFLSCVVCVEGIVTKCSLVRPKVVRSVHYCPATKKTIERRYSDLTTLVAFPSSSVYPTKDEENNPLETEYGLSVYKDHQTITIQEMPEKAPAGQLPRSVDVILDDDLVDKAKPGDRVQVVGTYRCLPGKKGGYTSGTFRTVLIACNVKQMSKDAQPSFSAEDIAKIKKFSKTRSKDIFDQLAKSLAPSIHGHDYVKKAILCLLLGGVERDLENGSHIRGDINILLIGDPSVAKSQLLRYVLCTAPRAIPTTGRGSSGVGLTAAVTTDQETGERRLEAGAMVLADRGVVCIDEFDKMSDMDRTAIHEVMEQGRVTIAKAGIHARLNARCSVLAAANPVYGRYDQYKTPMENIGLQDSLLSRFDLLFIMLDQMDPEQDREISDHVLRMHRYRAPGEQDGDAMPLGSAVDILATDDPNFSQEDQQDTQIYEKHDNLLHGTKKKKEKMVSAAFMKKYIHVAKIIKPVLTQESATYIAEEYSRLRSQDSMSSDTARTSPVTARTLETLIRLATAHAKARMSKTVDLQDAEEAVELVQYAYFKKVLEKEKKRKKRSEDESETEDEEEKSQEDQEQKRKRRKTRQPDAKDGDSYDPYDFSDTEEEMPQVHTPKTADSQETKESQKVELSESRLKAFKVALLDVFREAHAQSIGMNRLTESINRDSEEPFSSVEIQAALSKMQDDNQVMVSEGIIFLI
B3: SNW1 (protein, UniProt Q13573 1-536)
chain: MALTSFLPAPTQLSQDQLEAEEKARSQRSRQTSLVSSRREPPPYGYRKGWIPRLLEDFGDGGAFPEIHVAQYPLDMGRKKKMSNALAIQVDSEGKIKYDAIARQGQSKDKVIYSKYTDLVPKEVMNADDPDLQRPDEEAIKEITEKTRVALEKSVSQKVAAAMPVRAADKLAPAQYIRYTPSQQGVAFNSGAKQRVIRMVEMQKDPMEPPRFKINKKIPRGPPSPPAPVMHSPSRKMTVKEQQEWKIPPCISNWKNAKGYTIPLDKRLAADGRGLQTVHINENFAKLAEALYIADRKAREAVEMRAQVERKMAQKEKEKHEEKLREMAQKARERRAGIKTHVEKEDGEARERDEIRHDRRKERQHDRNLSRAAPDKRSKLQRNENRDISEVIALGVPNPRTSNEVQYDQRLFNQSKGMDSGFAGGEDEIYNVYDQAWRGGKDMAQSIYRPSKNLDKDMYGDDLEARIKTNRFVPDKEFSGSDRRQRGREGPVQFEEDPFGLDKFLEEAKQHGGSKRPSDSSRPKEHEHEGKKRRKE

Amino acid sequences for entries named in this document (tags omitted).
UniProt D0EZM8: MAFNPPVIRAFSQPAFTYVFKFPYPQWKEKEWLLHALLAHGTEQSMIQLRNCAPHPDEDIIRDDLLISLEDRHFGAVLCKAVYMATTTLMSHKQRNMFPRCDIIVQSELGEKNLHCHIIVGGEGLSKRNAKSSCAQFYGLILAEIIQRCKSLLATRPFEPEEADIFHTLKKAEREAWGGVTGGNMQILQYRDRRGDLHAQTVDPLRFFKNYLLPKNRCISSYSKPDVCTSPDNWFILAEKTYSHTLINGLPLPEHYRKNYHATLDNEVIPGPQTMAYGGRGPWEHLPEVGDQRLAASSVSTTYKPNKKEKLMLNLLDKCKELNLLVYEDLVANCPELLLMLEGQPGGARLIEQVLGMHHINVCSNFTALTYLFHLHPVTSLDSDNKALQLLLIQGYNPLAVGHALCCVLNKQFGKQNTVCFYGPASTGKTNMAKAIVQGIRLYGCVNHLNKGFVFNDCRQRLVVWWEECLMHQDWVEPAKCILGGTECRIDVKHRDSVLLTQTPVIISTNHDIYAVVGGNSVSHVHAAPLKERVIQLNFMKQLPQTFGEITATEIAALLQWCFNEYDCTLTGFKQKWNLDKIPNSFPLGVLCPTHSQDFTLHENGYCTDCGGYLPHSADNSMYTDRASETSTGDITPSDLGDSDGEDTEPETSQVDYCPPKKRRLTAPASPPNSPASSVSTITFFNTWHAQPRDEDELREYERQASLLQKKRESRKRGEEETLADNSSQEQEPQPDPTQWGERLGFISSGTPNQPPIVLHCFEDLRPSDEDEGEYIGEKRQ
UniProt P78527: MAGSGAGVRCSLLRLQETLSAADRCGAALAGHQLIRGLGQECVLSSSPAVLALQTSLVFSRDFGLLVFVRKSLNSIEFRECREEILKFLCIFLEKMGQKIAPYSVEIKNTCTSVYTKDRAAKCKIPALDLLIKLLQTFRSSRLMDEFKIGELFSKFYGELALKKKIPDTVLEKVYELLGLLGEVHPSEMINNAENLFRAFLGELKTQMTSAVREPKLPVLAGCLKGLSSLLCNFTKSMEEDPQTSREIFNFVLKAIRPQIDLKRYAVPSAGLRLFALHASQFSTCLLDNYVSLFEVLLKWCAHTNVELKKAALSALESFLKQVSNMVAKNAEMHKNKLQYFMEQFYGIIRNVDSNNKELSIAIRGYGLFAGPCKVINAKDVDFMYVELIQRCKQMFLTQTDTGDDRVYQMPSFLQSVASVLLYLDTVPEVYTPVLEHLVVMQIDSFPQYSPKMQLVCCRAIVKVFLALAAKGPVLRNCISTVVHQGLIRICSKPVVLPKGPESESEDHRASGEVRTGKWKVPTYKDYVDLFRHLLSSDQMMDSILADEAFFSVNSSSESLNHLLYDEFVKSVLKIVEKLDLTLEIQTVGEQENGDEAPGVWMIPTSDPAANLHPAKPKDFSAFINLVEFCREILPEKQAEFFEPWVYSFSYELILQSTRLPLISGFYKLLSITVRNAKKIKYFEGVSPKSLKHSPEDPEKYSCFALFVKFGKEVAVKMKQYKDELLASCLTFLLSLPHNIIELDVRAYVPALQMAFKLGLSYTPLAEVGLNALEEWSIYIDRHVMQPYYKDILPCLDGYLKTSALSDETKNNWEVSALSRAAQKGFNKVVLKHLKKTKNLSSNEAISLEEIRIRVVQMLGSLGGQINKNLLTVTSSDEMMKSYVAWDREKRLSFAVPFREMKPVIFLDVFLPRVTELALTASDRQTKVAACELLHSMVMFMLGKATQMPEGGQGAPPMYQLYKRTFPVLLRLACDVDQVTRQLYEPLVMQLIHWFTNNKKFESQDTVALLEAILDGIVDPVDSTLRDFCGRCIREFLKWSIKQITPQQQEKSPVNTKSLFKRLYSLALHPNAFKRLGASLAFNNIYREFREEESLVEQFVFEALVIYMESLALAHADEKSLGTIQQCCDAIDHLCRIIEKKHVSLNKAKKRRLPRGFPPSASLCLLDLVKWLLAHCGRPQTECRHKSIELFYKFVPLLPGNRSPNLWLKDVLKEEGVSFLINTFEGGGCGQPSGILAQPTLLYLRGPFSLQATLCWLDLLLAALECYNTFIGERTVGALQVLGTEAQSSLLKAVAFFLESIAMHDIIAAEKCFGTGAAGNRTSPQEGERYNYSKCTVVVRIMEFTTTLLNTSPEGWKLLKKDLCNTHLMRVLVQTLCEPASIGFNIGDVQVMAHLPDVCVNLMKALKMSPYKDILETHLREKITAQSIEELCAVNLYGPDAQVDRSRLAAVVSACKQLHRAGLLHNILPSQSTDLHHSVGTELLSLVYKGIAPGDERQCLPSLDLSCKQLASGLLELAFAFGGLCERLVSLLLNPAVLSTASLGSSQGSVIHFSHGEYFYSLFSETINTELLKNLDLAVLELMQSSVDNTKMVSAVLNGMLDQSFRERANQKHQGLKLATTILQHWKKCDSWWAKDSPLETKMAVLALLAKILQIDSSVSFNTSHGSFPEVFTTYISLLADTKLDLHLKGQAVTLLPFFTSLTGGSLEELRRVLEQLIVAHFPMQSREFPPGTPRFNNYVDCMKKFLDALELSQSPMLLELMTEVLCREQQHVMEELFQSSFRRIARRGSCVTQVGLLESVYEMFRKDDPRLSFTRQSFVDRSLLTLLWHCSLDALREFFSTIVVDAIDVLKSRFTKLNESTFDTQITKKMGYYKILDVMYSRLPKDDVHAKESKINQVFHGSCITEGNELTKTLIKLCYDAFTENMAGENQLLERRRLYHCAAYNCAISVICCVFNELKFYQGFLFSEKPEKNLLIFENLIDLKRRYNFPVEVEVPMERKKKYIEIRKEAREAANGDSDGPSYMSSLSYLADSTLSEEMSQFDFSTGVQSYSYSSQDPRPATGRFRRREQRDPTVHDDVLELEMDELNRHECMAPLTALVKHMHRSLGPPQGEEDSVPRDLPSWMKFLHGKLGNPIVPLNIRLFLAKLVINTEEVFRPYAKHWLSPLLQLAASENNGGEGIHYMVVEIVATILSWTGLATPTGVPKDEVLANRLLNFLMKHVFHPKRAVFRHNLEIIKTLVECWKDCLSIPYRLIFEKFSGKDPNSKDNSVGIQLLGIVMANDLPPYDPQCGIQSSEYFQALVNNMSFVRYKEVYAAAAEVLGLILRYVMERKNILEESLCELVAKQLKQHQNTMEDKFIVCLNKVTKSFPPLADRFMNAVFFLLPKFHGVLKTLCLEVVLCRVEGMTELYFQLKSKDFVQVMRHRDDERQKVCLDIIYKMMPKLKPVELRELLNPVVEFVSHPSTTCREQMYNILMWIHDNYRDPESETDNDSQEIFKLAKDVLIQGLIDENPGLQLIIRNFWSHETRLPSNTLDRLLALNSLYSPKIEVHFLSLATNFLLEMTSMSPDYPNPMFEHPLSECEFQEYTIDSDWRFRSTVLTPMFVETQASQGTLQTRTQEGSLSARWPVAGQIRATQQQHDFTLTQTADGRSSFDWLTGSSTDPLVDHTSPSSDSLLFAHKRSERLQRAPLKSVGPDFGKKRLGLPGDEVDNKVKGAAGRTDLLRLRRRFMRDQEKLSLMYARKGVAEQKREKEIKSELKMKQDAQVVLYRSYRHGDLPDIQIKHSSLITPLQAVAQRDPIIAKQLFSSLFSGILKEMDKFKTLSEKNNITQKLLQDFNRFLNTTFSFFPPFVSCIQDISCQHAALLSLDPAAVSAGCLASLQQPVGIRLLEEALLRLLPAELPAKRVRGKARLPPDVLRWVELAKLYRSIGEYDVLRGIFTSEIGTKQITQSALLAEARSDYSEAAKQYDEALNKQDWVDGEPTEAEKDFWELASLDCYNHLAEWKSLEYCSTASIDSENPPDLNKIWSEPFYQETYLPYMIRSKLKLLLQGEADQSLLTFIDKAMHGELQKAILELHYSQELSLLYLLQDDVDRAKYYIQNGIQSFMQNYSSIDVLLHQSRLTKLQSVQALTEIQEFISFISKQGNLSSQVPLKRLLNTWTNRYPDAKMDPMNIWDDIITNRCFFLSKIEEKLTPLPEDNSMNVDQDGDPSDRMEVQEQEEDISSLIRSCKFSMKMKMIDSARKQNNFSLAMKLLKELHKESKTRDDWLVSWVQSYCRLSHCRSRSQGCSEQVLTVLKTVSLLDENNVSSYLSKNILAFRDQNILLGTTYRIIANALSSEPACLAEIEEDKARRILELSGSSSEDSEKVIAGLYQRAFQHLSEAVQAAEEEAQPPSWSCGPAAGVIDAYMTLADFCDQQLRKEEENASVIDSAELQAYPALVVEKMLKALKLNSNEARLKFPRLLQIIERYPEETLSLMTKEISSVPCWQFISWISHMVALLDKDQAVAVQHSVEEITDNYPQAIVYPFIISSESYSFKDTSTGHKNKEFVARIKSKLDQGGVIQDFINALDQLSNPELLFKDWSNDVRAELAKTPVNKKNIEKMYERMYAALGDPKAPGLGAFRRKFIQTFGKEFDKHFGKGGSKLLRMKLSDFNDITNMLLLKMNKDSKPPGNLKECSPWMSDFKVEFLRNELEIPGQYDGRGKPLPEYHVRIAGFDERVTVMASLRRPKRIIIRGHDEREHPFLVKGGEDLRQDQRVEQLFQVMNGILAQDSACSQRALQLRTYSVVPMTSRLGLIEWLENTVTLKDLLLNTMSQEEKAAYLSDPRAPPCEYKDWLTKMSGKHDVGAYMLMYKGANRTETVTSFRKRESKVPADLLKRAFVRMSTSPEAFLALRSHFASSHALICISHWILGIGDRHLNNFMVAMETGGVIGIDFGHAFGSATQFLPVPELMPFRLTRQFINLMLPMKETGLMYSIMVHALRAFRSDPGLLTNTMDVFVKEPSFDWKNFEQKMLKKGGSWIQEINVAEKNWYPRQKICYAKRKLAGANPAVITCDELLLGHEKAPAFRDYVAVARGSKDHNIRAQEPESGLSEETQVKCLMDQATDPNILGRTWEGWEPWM
UniProt P11142: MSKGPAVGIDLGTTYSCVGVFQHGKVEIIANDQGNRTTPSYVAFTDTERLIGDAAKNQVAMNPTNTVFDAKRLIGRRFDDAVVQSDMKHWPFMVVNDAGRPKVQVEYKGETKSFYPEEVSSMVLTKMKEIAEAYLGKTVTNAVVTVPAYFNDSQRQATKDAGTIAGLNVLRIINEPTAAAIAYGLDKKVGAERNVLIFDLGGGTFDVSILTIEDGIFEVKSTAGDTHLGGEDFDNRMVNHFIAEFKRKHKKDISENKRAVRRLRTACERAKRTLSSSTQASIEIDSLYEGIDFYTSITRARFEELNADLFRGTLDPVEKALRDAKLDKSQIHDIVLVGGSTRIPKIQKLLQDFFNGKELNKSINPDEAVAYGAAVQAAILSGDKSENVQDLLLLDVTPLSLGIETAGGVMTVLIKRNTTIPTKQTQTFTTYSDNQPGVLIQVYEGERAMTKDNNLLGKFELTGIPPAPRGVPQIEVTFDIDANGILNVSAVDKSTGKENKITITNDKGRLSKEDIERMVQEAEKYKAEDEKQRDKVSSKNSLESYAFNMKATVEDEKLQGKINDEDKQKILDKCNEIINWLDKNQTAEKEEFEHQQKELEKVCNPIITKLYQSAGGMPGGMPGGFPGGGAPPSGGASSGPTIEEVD
UniProt P27694: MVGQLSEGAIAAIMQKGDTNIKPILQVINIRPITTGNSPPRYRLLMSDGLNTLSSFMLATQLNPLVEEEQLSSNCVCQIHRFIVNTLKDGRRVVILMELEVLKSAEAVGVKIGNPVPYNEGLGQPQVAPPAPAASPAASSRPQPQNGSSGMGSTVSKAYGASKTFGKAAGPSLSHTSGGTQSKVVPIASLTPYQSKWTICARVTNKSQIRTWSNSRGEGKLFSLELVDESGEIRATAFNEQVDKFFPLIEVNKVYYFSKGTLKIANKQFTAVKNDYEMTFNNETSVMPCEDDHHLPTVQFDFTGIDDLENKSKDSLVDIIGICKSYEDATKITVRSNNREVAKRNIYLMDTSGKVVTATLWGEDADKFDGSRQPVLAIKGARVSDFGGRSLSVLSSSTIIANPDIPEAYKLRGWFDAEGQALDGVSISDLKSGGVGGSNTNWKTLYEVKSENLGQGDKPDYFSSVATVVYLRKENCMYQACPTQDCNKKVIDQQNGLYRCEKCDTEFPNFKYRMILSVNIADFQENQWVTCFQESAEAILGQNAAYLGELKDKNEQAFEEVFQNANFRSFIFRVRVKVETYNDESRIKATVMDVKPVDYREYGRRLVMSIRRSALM

Molecular target: HBoV1 NS1 (codon-optimized NS1-100) fused with BioID2 (human bocavirus 1 (HBoV1)) (UniProt D0EZM8)
Experiment: proximity labelling

Molecule	binding
DNA-PKcs (DNA-dependent protein kinase catalytic subunit) (from UniProt P78527 1-4128)	binds
HSPA8 (from UniProt P11142 1-646)	binds
RPA1 (from UniProt P27694 1-616)	binds
B1	binds
B2	binds
B3	binds

From paper PMC8865542
